In publication PMC8701324, “Structural Insight into the Mechanism of PALB2 Interaction with MRG15” (Genes, 2021):
No constants are given. Whether binding was seen depends on the method and setting.

Chains of the proteins cited; added tags and fusions are not shown. Residues count along the entry.
UniProt Q9UBU8, residues 194-362: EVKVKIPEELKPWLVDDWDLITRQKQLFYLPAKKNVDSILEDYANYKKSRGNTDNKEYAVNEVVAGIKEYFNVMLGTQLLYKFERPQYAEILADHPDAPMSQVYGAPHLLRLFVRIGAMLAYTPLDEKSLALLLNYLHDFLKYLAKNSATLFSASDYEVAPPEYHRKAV

Molecular target: MRG15 MRG domain, amino acids 155-323 (UniProt Q9UBU8)
Assay: fluorescence polarisation; fluorescence anisotropy competition; mutant PALB2 597-630 peptides serially diluted from 10 uM to 0.6 nM against a preformed complex of MRG15 and FAM-PALB2; 25 mM HEPES pH 8.0, 1 mM TCEP, 10% DMSO, 200 mM NaCl; room temperature; both purified

binding, no binding (tested: 10 µM):
MLSLKQLLSFLSITDAQLPDEDFGPLKLEKVKSC (peptide, UniProt Q86YC2 597-630) [PALB2^597-630 peptide with Phe612 substituted by alanine]
MLSLKQLLSFLSITDFQLPDEDAGPLKLEKVKSC (peptide, UniProt Q86YC2 597-630) [PALB2^597-630 peptide with Phe619 substituted by alanine]
MLSLKQLLSFLSITDFQAPDEDFGPLKLEKVKSC (peptide, UniProt Q86YC2 597-630) [PALB2^597-630 peptide with Leu614 substituted by alanine]
